# Reference: PubChem BioAssay AID1671190 (National Center for Advancing Translational Sciences (NCATS), 2021)
# Chains of the proteins cited; added tags and fusions are not shown. Lines headed by an entry give the natural chain unless they say otherwise; changes in a name come on top.
# UniProt P18054: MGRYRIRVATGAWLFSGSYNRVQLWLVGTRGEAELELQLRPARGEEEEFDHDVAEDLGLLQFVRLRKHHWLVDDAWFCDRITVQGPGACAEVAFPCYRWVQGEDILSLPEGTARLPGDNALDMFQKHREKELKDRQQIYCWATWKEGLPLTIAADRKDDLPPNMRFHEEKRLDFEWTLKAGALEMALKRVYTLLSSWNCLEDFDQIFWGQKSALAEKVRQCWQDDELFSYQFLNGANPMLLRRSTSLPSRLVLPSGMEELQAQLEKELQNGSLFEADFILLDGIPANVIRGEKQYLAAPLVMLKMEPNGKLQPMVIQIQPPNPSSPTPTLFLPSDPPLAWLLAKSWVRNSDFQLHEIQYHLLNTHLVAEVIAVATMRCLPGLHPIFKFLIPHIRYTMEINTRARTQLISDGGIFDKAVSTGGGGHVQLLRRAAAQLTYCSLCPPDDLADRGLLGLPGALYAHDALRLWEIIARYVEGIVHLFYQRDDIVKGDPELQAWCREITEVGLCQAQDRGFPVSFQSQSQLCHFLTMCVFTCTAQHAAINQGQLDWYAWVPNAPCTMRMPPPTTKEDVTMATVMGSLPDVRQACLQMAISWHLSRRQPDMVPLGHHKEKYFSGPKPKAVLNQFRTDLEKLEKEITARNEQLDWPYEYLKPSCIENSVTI
# Hit rate of the full screen: of about 580,000 compounds, about 6,100 (1.1%) were called active. The shares of active, inactive and inconclusive entries below differ from those in the screen. Calls follow the shape of the dose curve; as a rule, active = well fitted inhibition curve with a large enough effect; inconclusive = small, poorly fitted or top-dose-only effect, or another doubt; inactive = no such curve, though single readings can be large or run the other way. Where the call is inconclusive, the potency comes from a doubtful curve fit.
# Target: Polyunsaturated fatty acid lipoxygenase ALOX12 (Homo sapiens) (UniProt P18054)
# Test: Primary qHTS assay for inhibitors of human arachidonate 12S-lipoxygenase (ALOX12): Round 2
# Conditions: purified 12hLO, xylenol orange hydroperoxide absorbance; series mostly up to 108 µM
# Outline: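 Purified human 12hLO at 150 nM in 25 mM Hepes, 0.01% Triton X-100, pH 7.0, preincubated 15 min at room temperature with compound. Reaction started with 40 uM arachidonic acid, 30 min at room temperature. Hydroperoxide measured by Fe-xylenol orange, 573/405 nm absorbance ratio.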
# Potency is read from the fitted curve at half-maximal effect.
row,Structure (SMILES),Potency
1,CCOc1ccc(C(=O)NCc2ccccc2OC)cc1,"inconclusive: 0.178 µM [inhibitor, full curve, poor fit]"
2,CCOc1ccccc1C(=O)Nc1nn[nH]n1,"inconclusive: 1.26 µM [inhibitor, partial curve, poor fit]"
3,Cc1ccc(-c2nc(C#N)c(NCC(C)C)o2)cc1,inactive
4,O=C(OCc1cc(Cl)ccc1OC(F)F)c1cccnc1,"inconclusive: 44.7 µM [inhibitor, partial curve, poor fit]"
5,O=C(Nc1ccccc1Cl)c1cnccn1,inactive
6,Cn1c(=O)oc2cc(S(=O)(=O)N3CCC(C(=O)N4CCN(c5ccccc5)CC4)CC3)ccc21,inactive
7,COc1ccc(Nc2ncnc3c2cnn3-c2cc(Cl)ccc2C)cc1OC,inactive
8,NC(=O)NNC(=S)Nc1ccc(SC(F)F)cc1,"inconclusive: 0.631 µM [inhibitor, full curve, poor fit]"
9,Cc1ccc(C(=O)NN2C(=O)C3C4C=CC([C@@H]3C2=O)C42CC2)cc1 (stereo partly specified),"inconclusive: 11.2 µM [inhibitor, partial curve, poor fit]"
10,Cc1ccc2[nH]c(C(=O)Nc3ccc4c(c3)OCCO4)cc2c1,"inconclusive: 89.1 µM [inhibitor, single point]"
11,COc1ccccc1-c1nnc(SCC(=O)N2CCC(C)CC2)o1,"inconclusive: 7.94 µM [inhibitor, full curve, poor fit]"
12,O=C1C(C=Nc2ccccc2)=C(O)c2ccccc21,inactive
13,c1ccc(Sc2ncccn2)nc1,"inconclusive: 35.5 µM [inhibitor, single point]"
14,COc1ccc2nc(N3C(=O)CC(Cc4ccc(Cl)cc4)C3=O)sc2c1 (stereo unspecified),"inconclusive: 56.2 µM [inhibitor, partial curve, poor fit]"
15,CC1CCN(S(=O)(=O)N2CC=C(c3c[nH]c4ccccc34)CC2)CC1,"inconclusive: 158 µM [inhibitor, single point]"
16,C#CCOCCOCCOCCNc1nc(N2CCN(C(=O)[C@H]([C@@H](C)CC)n3cc(CCCCN)nn3)CC2)nc(N2CCN(C(=O)[C@H](CCCCN)n3cc(CCCC)nn3)CC2)n1,"inconclusive: 89.1 µM [inhibitor, single point]"
17,Cc1cccc(NC(=O)c2cccnc2)c1,"inconclusive: 100 µM [inhibitor, partial curve, poor fit]"
18,O=C1CC(=O)CC(c2ccc(Cl)cc2)C1,"inconclusive: 89.1 µM [inhibitor, partial curve, poor fit]"
19,O=C(c1ccsc1)N1CC[C@@H]2COCCN(Cc3ccccc3)[C@@H]2C1,"inconclusive: 17.8 µM [inhibitor, full curve]"
20,Cn1nc(C(=O)N2CCN(c3ccccc3Cl)CC2)c2ccccc2c1=O,inactive
21,CN(c1ccccc1)S(=O)(=O)c1cccc(NC(=O)CCNC(=O)c2ccc([N+](=O)[O-])cc2)c1,"inconclusive: 112 µM [inhibitor, partial curve, poor fit]"

row,Structure (SMILES),Potency
1,O=C(O)CCC(=O)Nc1ccc(S(=O)(=O)NCC(=O)c2ccccc2)cc1,"inconclusive: 56.2 µM [inhibitor, partial curve, poor fit]"
2,Cc1ccc(-n2nc3c(N4CCC(C(=O)NCCc5ccco5)CC4)nnc(C)c3c2C)cc1,inactive
3,Nc1cccc2c1C(=O)N(CC(=O)NC13CC4CC(CC(C4)C1)C3)C2=O,"inconclusive: 100 µM [inhibitor, single point]"
4,C/C(=N/O)C(C)N(O)C(C)/C(C)=N/O (stereo unspecified),"inconclusive: 1.41 µM [inhibitor, full curve, poor fit]"
5,C(#CCn1c2ccccc2c2ccccc21)CN1CCOCC1,inactive
6,Cc1ccc([C@@H]2CC=C(C(=O)O)[C@H](c3cccc(Cl)c3)N2S(=O)(=O)c2ccccc2C)cc1,"inconclusive: 70.8 µM [inhibitor, partial curve, poor fit]"
7,S=c1[nH]nc(Cc2sc(-c3ccccc3)nc2-c2ccccc2)o1,"inconclusive: 44.7 µM [inhibitor, partial curve, poor fit]"
8,Cc1ccc(-c2nc3cnccn3c2NCCC(=O)NCc2ccco2)cc1,active: 50.1 µM
9,CCCc1oc2ccc(NS(=O)(=O)c3ccc(OCC)cc3)cc2c1C(=O)OCC,"inconclusive: 56.2 µM [inhibitor, partial curve, poor fit]"
10,Cc1nc(C(F)(F)F)nc(N2CCN(C3CCCC3)C(CCO)C2)c1C (stereo unspecified),"inconclusive: 17.8 µM [inhibitor, single point]"
11,C[N+]1(CC(O)COc2ccccc2)CCN(C(=O)c2ccc([N+](=O)[O-])cc2)CC1 (stereo unspecified),"inconclusive: 89.1 µM [inhibitor, single point]"
12,CCOC(=O)c1c(-c2ccccc2)csc1NC(=S)N(CC)CC,inactive
13,COc1cccc2cc(-c3cc(=O)oc4cc(C)c(C)cc34)oc12,"inconclusive: 126 µM [inhibitor, partial curve, poor fit]"
14,Cc1ccc(C(=O)OC2=C(C(=O)c3ccccc3)N(C)S(=O)(=O)c3ccccc32)cc1,inactive
15,Cc1cccc(NC(=S)NC2CC3CCCC(C2)N3CC(C)C)c1 (stereo unspecified),"inconclusive: 100 µM [inhibitor, single point]"
16,CCCCCC1C(=O)N2C=C(c3ccccc3)c3ccccc3N2C1=O (stereo unspecified),"inconclusive: 44.7 µM [inhibitor, partial curve]"
17,Cc1cc(SCC(=O)NC(N)=O)nc2c(C)cccc12,"inconclusive: 112 µM [inhibitor, single point]"
18,CCc1ccc(OCC(=O)NC(NC(=S)Nc2ccc(C)cc2C)C(Cl)(Cl)Cl)cc1 (stereo unspecified),"inconclusive: 56.2 µM [inhibitor, partial curve, poor fit]"
19,Cn1ccn(CCCCCCn2ccn(C)c2=S)c1=S,"inconclusive: 25.1 µM [inhibitor, partial curve]"
20,CCOc1ccc(-c2[nH]c3c(c2-c2ccc(OC)cc2)c(=O)[nH]c(=O)n3C)cc1OC,"inconclusive: 50.1 µM [inhibitor, partial curve, poor fit]"

# 4 entries out of the list, arranged by SMILES length, low to high.
row,Structure (SMILES),Potency
12,CCOC(=O)c1c(-c2ccccc2)csc1NC(=S)N(CC)CC,inactive
16,CCCCCC1C(=O)N2C=C(c3ccccc3)c3ccccc3N2C1=O (stereo unspecified),"inconclusive: 44.7 µM [inhibitor, partial curve]"
9,CCCc1oc2ccc(NS(=O)(=O)c3ccc(OCC)cc3)cc2c1C(=O)OCC,"inconclusive: 56.2 µM [inhibitor, partial curve, poor fit]"
20,CCOc1ccc(-c2[nH]c3c(c2-c2ccc(OC)cc2)c(=O)[nH]c(=O)n3C)cc1OC,"inconclusive: 50.1 µM [inhibitor, partial curve, poor fit]"
